Reference: the supplement of paper PMC8612539
Values after ≈ are worked out from the molar mass of the structure shown. The source gives many values for each of these; only a part stands here.

Tested on: Escherichia coli
Test: minimum inhibitory concentration (MIC)
Description: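 Broth microdilution MIC (Sensititre BOPO7F bovine plate, CLSI methods) of 19 antimicrobials against field isolates of P. multocida, M. haemolytica, H. somni (deep nasopharyngeal swabs) and E. coli, Enterococcus spp. (rectal swabs) from weaned dairy heifers. Incubation 16-24 h at 35 C. MIC is the lowest concentration preventing visible growth. Values with <= or > lie at the tested range limits. Trimethoprim-sulfamethoxazole is given as the trimethoprim component of a 1:19 mixture.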

CN[C@@H]1[C@H](O)[C@H](NC)[C@H]2O[C@@]3(O)C(=O)C[C@@H](C)O[C@H]3O[C@@H]2[C@H]1O [Spectinomycin]
Conditions | minimum inhibitory concentration [µg/mL]
isolate (source animal id): 1 | 16 (≈ 48.1 µM)
isolate (source animal id): 2 | 32 (≈ 96.3 µM)
isolate (source animal id): 3 | 16 (≈ 48.1 µM)
isolate (source animal id): 4 | 16 (≈ 48.1 µM)
isolate (source animal id): 5 | > 64
isolate (source animal id): 6 | 32 (≈ 96.3 µM)
isolate (source animal id): 7 | 32 (≈ 96.3 µM)
isolate (source animal id): 17 | > 64
isolate (source animal id): 18 | 16 (≈ 48.1 µM)
isolate (source animal id): 19 | 16 (≈ 48.1 µM)
isolate (source animal id): 20 | 16 (≈ 48.1 µM)
isolate (source animal id): 21 | 16 (≈ 48.1 µM)
isolate (source animal id): 22 | 16 (≈ 48.1 µM)
isolate (source animal id): 23 | 16 (≈ 48.1 µM)
isolate (source animal id): 24 | 16 (≈ 48.1 µM)
isolate (source animal id): 25 | > 64
isolate (source animal id): 26 | 16 (≈ 48.1 µM)
isolate (source animal id): 27 | > 64
isolate (source animal id): 28 | 16 (≈ 48.1 µM)
isolate (source animal id): 29 | > 64
isolate (source animal id): 30 | > 64
isolate (source animal id): 31 | 32 (≈ 96.3 µM)
isolate (source animal id): 32 | 64 (≈ 193 µM)
isolate (source animal id): 33 | > 64
isolate (source animal id): 34 | 16 (≈ 48.1 µM)
isolate (source animal id): 35 | > 64
isolate (source animal id): 36 | 16 (≈ 48.1 µM)
isolate (source animal id): 37 | 16 (≈ 48.1 µM)
isolate (source animal id): 38 | 16 (≈ 48.1 µM)
isolate (source animal id): 39 | > 64
isolate (source animal id): 40 | 16 (≈ 48.1 µM)
isolate (source animal id): 41 | > 64
isolate (source animal id): 42 | 16 (≈ 48.1 µM)
isolate (source animal id): 43 | > 64
isolate (source animal id): 44 | 16 (≈ 48.1 µM)
isolate (source animal id): 45 | > 64
isolate (source animal id): 46 | 16 (≈ 48.1 µM)
isolate (source animal id): 47 | 16 (≈ 48.1 µM)
isolate (source animal id): 48 | 16 (≈ 48.1 µM)
isolate (source animal id): 49 | > 64
isolate (source animal id): 50 | > 64
isolate (source animal id): 51 | 32 (≈ 96.3 µM)
isolate (source animal id): 52 | 32 (≈ 96.3 µM)
isolate (source animal id): 53 | 32 (≈ 96.3 µM)
isolate (source animal id): 54 | 16 (≈ 48.1 µM)
isolate (source animal id): 55 | 16 (≈ 48.1 µM)
isolate (source animal id): 56 | 16 (≈ 48.1 µM)
isolate (source animal id): 57 | > 64
isolate (source animal id): 58 | 16 (≈ 48.1 µM)
isolate (source animal id): 59 | 16 (≈ 48.1 µM)
isolate (source animal id): 60 | 16 (≈ 48.1 µM)
isolate (source animal id): 61 | > 64
isolate (source animal id): 62 | 16 (≈ 48.1 µM)
isolate (source animal id): 63 | 16 (≈ 48.1 µM)
isolate (source animal id): 64 | 16 (≈ 48.1 µM)
isolate (source animal id): 65 | 32 (≈ 96.3 µM)
isolate (source animal id): 66 | > 64
isolate (source animal id): 67 | 16 (≈ 48.1 µM)
isolate (source animal id): 68 | 16 (≈ 48.1 µM)
isolate (source animal id): 69 | 16 (≈ 48.1 µM)
isolate (source animal id): 70 | 16 (≈ 48.1 µM)
isolate (source animal id): 71 | 16 (≈ 48.1 µM)
isolate (source animal id): 72 | 16 (≈ 48.1 µM)
isolate (source animal id): 73 | 16 (≈ 48.1 µM)
isolate (source animal id): 74 | 16 (≈ 48.1 µM)
isolate (source animal id): 75 | 16 (≈ 48.1 µM)
isolate (source animal id): 76 | > 64
isolate (source animal id): 77 | 16 (≈ 48.1 µM)
isolate (source animal id): 78 | > 64
isolate (source animal id): 79 | 16 (≈ 48.1 µM)
isolate (source animal id): 80 | 16 (≈ 48.1 µM)
isolate (source animal id): 81 | > 64
isolate (source animal id): 82 | 16 (≈ 48.1 µM)
isolate (source animal id): 83 | 16 (≈ 48.1 µM)
isolate (source animal id): 84 | 16 (≈ 48.1 µM)
isolate (source animal id): 85 | 16 (≈ 48.1 µM)
isolate (source animal id): 86 | > 64
isolate (source animal id): 87 | ≤ 8
isolate (source animal id): 88 | ≤ 8
isolate (source animal id): 89 | 16 (≈ 48.1 µM)
isolate (source animal id): 90 | 16 (≈ 48.1 µM)
isolate (source animal id): 91 | ≤ 8
isolate (source animal id): 92 | 16 (≈ 48.1 µM)
isolate (source animal id): 93 | 16 (≈ 48.1 µM)
isolate (source animal id): 94 | > 64
isolate (source animal id): 95 | 16 (≈ 48.1 µM)
isolate (source animal id): 96 | ≤ 8
isolate (source animal id): 97 | 16 (≈ 48.1 µM)
isolate (source animal id): 189 | 16 (≈ 48.1 µM)
isolate (source animal id): 190 | 16 (≈ 48.1 µM)
isolate (source animal id): 191 | 16 (≈ 48.1 µM)
isolate (source animal id): 192 | 16 (≈ 48.1 µM)
isolate (source animal id): 193 | 16 (≈ 48.1 µM)
isolate (source animal id): 194 | 16 (≈ 48.1 µM)
isolate (source animal id): 195 | 16 (≈ 48.1 µM)
isolate (source animal id): 196 | 16 (≈ 48.1 µM)
isolate (source animal id): 197 | 16 (≈ 48.1 µM)
isolate (source animal id): 198 | 64 (≈ 193 µM)
isolate (source animal id): 199 | 16 (≈ 48.1 µM)
isolate (source animal id): 200 | 16 (≈ 48.1 µM)
isolate (source animal id): 201 | 16 (≈ 48.1 µM)
isolate (source animal id): 202 | 16 (≈ 48.1 µM)
isolate (source animal id): 203 | 16 (≈ 48.1 µM)
isolate (source animal id): 204 | 16 (≈ 48.1 µM)
isolate (source animal id): 205 | 16 (≈ 48.1 µM)
isolate (source animal id): 206 | 16 (≈ 48.1 µM)
isolate (source animal id): 207 | 16 (≈ 48.1 µM)
isolate (source animal id): 208 | 16 (≈ 48.1 µM)
isolate (source animal id): 209 | 16 (≈ 48.1 µM)
isolate (source animal id): 210 | > 64
isolate (source animal id): 211 | 16 (≈ 48.1 µM)
isolate (source animal id): 212 | 16 (≈ 48.1 µM)
isolate (source animal id): 213 | 16 (≈ 48.1 µM)
isolate (source animal id): 214 | 16 (≈ 48.1 µM)
isolate (source animal id): 215 | 16 (≈ 48.1 µM)
isolate (source animal id): 216 | 32 (≈ 96.3 µM)
isolate (source animal id): 217 | ≤ 8
isolate (source animal id): 218 | 16 (≈ 48.1 µM)
isolate (source animal id): 219 | 16 (≈ 48.1 µM)
isolate (source animal id): 220 | 16 (≈ 48.1 µM)
